# Measurements published in PubChem BioAssay AID602 (SRMLSC, 2007).
# This is one part of the list. Some tests of the compounds listed are not included; inactive here does not mean inactive elsewhere.
# Test: MRP1 drug-resistance reversers in H69AR cells – cell-based, doxorubicin co-treatment, primary screen (AID 602)
# Details: H69AR cells + 2 uM doxorubicin, CellTiter-Glo, 72 h; measured here: viability with 2 uM doxorubicin; at 10 µM; stronger effect = lower value
row,Structure (SMILES),viability [%]
1,O=C(OC1CN2CCC1CC2)C(CO)(c1ccccc1)c1ccccc1 (configuration not stated),88.2
2,CN(C)c1cccc(C(=O)NCC2(N(C)C)CCCCC2)c1,95.2
